The values that follow come from patent US20110287953A1, “METHOD FOR DISCOVERING POTENTIAL DRUGS” (priority 2010, published 2011).

In experiment [1] the test system is HCC cell lines, Mahlavu, PLC5, HepG2, and Huh7. Briefly: MTT cell viability test in HCC cell lines. Conditions: 72 h, Table 3-1. As to the method:
(§1) The HCC cell lines, Mahlavu, PLC5, HepG2, and Huh7, were cultured in Dulbecco's Modified Eagle Medium (DMEM; Seromed, Berlin, Germany) supplemented with 10% heat-inactivated fetal bovine serum, 100 μg/ml streptomycin, 100 μg/ml penicillin, and 2 mM L-glutamine in a humidified atmosphere containing 5% CO2 at 37° C. […] The cells were exposed to different concentrations of the small molecules for 72 hours. Control cells were incubated in the absence of small molecules. Afterwards, the cells were incubated with medium containing MTT for 2 hours. […] For the clonogenic assay, Huh7 cells were seeded out in appropriate dilutions in a 6-well plate and treated with selected small molecules at various concentrations for 15 days. Colonies were fixed with glutaraldehyde (6.0% v/v), stained with crystal violet (0.5% w/v), and counted.

For experiment [2], the system named is HCC cell lines. Briefly: Drug efficacy label of top 10 CMap drugs (MTT or clonogenic).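 Further: label 1 means effective by MTT or clonogenic assay and 4 means ineffective.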 It counts as cell-based. The conditions noted are these: Table 2-3; labels (1) and (4); gene set in which the drug ranked top 10. As to the method: as §1

For `CN1CCN(CCCN2c3ccccc3Sc3ccc(Cl)cc32)CC1` [prochlorperazine], in experiment [1], the IC50 (commonly the concentration that inhibits the measured activity by half) lay within 5 to 10 µM. Turning to `Clc1ccc(CSC(Cn2ccnc2)c2ccc(Cl)cc2Cl)cc1` (stereo not drawn) [sulconazole], the drug efficacy label result in experiment [2] is on record as “sulconazole (1)”. Moreover, the IC50 in experiment [1] fell in the range of 5 to 10 µM.
